Laboratory results: PubChem BioAssay AID1508597 (Cure First, 2020)
Test: 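Knock-downs altering ovarian cancer cell survival with or without PARP inhibitor rucaparib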 (primary screen). System: human ovarian carcinoma lines grown from tumours: OCI-P5x (papillary serous) and OCI-C5x (clear cell). Reagents: siRNA pool against human genes, 1.25 pmol siRNA per well. Time to read-out: 72 h or 96 h, depending on the cell culture. Conditions: rucaparib 20 µM (about IC30) or vehicle, present until read-out. Rucaparib or vehicle: Rucaparib. Cell line: OCI-P5x (serous). Measured: 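ATP luminescence measured at 72 or 96 h according to the culture, then normalised and expressed as percent viability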. Scale: viability, normalised: higher = more viable cells remaining. Call rule: 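Active when normalised viability falls below 80 percent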. Calls: active = viability under 80%; inactive = viability 80% or more.
Shown is a random part of the about 2,100 reagents, in one setting of the screen. 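Calls flag viability under 80% in either arm, not effects specific to rucaparib; the reference for percent is not stated.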 Entries without a mark were called inactive. Not stated in the record: the 100% reference.

LATS2 (GeneID 26524), technical replicate 1 scored viability, normalised (%) = 108. For LATS2 (GeneID 26524), technical replicate 2, the values are viability, normalised (%) = 110. With LATS2 (GeneID 26524), technical replicate 3, the values are viability, normalised (%) = 110. With ITGB1 (GeneID 3688), technical replicate 1, the entry reads viability, normalised (%) = 77.2 (active). ITGB1 (GeneID 3688), technical replicate 2 scored viability, normalised (%) = 71.9 (active). ITGB1 (GeneID 3688), technical replicate 3 scored viability, normalised (%) = 75.7 (active).

PRPS1L1 (GeneID 221823), technical replicate 1 showed viability, normalised (%) = 88.8. With PRPS1L1 (GeneID 221823), technical replicate 2 the deposit lists viability, normalised (%) = 78 (active). For PRPS1L1 (GeneID 221823), technical replicate 3, the entry reads viability, normalised (%) = 76.1 (active). GRK4 (GeneID 2868), technical replicate 1 showed viability, normalised (%) = 93.1. With GRK4 (GeneID 2868), technical replicate 2, the values are viability, normalised (%) = 94.6. GRK4 (GeneID 2868), technical replicate 3 showed viability, normalised (%) = 81.5.

NEK5 (GeneID 341676), technical replicate 1 scored viability, normalised (%) = 90.5. NEK5 (GeneID 341676), technical replicate 2 scored viability, normalised (%) = 100. For NEK5 (GeneID 341676), technical replicate 3 the deposit lists viability, normalised (%) = 74.6 (active). For SMYD3 (GeneID 64754), technical replicate 1, the entry reads viability, normalised (%) = 48 (active). With SMYD3 (GeneID 64754), technical replicate 2, the entry reads viability, normalised (%) = 54.5 (active). SMYD3 (GeneID 64754), technical replicate 3 gave viability, normalised (%) = 44.3 (active).

With SP110 (GeneID 3431), technical replicate 1 the deposit lists viability, normalised (%) = 44.8 (active). With SP110 (GeneID 3431), technical replicate 2, the entry reads viability, normalised (%) = 42.6 (active). With SP110 (GeneID 3431), technical replicate 3 the deposit lists viability, normalised (%) = 51.1 (active). For DGKQ (GeneID 1609), technical replicate 1, the entry reads viability, normalised (%) = 45.8 (active). DGKQ (GeneID 1609), technical replicate 2 scored viability, normalised (%) = 56.3 (active). For DGKQ (GeneID 1609), technical replicate 3, the values are viability, normalised (%) = 51.3 (active).

For PCK1 (GeneID 5105), technical replicate 1, the entry reads viability, normalised (%) = 101. PCK1 (GeneID 5105), technical replicate 2 scored viability, normalised (%) = 80.1. PCK1 (GeneID 5105), technical replicate 3 gave viability, normalised (%) = 79.5 (active). With SPOCK2 (GeneID 9806), technical replicate 1, the entry reads viability, normalised (%) = 58.6 (active). With SPOCK2 (GeneID 9806), technical replicate 2, the values are viability, normalised (%) = 53.7 (active). SPOCK2 (GeneID 9806), technical replicate 3 showed viability, normalised (%) = 54.9 (active).

DPF2 (GeneID 5977), technical replicate 1 scored viability, normalised (%) = 64 (active). DPF2 (GeneID 5977), technical replicate 2 gave viability, normalised (%) = 51.9 (active). With DPF2 (GeneID 5977), technical replicate 3 the deposit lists viability, normalised (%) = 49.4 (active).
